By UniProt entry, the sequences of proteins in these tests, tags left out.
UniProt P40356: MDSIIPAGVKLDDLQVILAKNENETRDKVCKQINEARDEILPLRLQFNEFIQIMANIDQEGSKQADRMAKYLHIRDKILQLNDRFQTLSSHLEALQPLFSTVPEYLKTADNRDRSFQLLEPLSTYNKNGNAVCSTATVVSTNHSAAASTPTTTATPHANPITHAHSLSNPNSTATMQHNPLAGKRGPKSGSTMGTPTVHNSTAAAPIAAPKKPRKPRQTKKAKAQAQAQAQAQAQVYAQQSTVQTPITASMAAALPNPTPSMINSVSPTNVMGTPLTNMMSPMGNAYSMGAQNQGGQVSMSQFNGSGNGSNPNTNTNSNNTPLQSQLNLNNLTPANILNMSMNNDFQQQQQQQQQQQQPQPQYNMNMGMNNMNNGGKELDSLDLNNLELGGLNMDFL
UniProt P53114: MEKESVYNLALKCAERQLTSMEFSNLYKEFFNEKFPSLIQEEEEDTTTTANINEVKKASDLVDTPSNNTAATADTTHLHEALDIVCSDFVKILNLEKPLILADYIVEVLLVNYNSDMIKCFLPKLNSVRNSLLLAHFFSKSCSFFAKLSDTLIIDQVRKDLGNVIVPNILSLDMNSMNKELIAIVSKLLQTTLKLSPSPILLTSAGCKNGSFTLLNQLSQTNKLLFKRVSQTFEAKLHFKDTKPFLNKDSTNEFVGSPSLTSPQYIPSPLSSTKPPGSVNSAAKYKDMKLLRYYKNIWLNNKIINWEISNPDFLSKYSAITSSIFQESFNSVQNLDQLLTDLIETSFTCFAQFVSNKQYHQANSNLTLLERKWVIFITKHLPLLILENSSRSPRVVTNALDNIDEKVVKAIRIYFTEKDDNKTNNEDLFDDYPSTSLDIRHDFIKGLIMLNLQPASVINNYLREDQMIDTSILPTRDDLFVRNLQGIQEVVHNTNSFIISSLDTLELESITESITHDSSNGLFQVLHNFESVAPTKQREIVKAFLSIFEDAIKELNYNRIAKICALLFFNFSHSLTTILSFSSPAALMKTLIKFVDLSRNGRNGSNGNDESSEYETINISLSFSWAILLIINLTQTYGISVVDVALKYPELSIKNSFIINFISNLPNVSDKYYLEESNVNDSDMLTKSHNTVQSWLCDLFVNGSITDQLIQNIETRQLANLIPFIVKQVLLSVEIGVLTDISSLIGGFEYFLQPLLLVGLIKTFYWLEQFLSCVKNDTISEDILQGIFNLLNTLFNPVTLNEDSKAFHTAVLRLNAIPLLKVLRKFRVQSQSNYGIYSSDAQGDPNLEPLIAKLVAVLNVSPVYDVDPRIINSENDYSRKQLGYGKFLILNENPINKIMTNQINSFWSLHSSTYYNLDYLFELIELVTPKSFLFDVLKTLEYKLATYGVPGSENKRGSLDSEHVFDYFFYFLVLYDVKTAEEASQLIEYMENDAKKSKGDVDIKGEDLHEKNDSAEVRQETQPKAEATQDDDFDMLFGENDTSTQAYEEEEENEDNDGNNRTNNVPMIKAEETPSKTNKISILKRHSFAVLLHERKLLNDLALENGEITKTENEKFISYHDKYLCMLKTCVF

In publication PMC5327418:

T1: Med17-HA (S. cerevisiae (endogenous in S288c)), P32569
T1 chain: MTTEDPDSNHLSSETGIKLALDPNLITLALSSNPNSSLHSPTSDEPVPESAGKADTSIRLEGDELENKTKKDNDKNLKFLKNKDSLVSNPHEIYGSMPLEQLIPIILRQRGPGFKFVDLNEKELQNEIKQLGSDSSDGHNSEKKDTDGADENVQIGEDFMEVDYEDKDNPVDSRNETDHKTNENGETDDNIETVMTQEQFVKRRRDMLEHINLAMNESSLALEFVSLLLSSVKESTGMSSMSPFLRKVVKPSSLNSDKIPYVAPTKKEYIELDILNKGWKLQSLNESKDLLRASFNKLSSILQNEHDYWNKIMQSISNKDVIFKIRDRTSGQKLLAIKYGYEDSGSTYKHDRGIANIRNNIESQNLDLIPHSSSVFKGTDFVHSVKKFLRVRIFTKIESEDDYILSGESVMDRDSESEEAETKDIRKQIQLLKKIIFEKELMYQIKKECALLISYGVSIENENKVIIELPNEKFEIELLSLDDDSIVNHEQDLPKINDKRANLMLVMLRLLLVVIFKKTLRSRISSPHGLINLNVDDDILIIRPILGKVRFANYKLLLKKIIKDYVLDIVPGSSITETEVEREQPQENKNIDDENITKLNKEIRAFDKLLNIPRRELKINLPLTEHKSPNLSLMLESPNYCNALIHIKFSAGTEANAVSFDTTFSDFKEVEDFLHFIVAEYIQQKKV


Assays:
[1] = target: Med17-HA (S. cerevisiae (endogenous in S288c)) (UniProt P32569); assay: affinity purification with mass spectrometry; purification-after-mixing (PAM): Med17-HA cells and differently labelled wild type cells mixed before cryogrinding and CoIP, same conditions as the MAP experiment, 2 h CoIP
[2] = target: T1, Med17-HA (S. cerevisiae (endogenous in …)); assay: affinity purification with mass spectrometry; CoIP of Med17-HA on anti-HA magnetic beads from cryoground yeast lysate, 2 h at 4 °C; 20 mM HEPES pH 7.5, 300 mM KOAc, 10% glycerol, 0.01% NP-40, 6 mM MnSO4, 1 mM DTT, Cyanase nuclease; parallel control CoIP from 15N-labelled wild type cells, mixing after purification (MAP); GeLC-MS/MS, three biological replicates; settings: remark: other sources report otherwise
[3] = target: Med17-HA (S. cerevisiae (endogenous in S288c)) (UniProt P32569); assay: as above

binding [2]	Molecule	also measured
binds	Srb8, P25648 1-1427 (protein) MNNGSGRYLLTPPDDLHPYVPSSKPQEQVYPDFKPWEHTAAEDQILANFVAKGFYHTPMVNFESISARSSVHESLVTQSNILSQQFDKIIKIREDHINKIPSNSTTTLHGPGFQLPNRITLTDHRKETWLHELSSSHTSLVKIGKFIPHGLKRRQVIEQCYLKFIPLKRAIWLIKCCYFIEWKSNHKKKRSNAAGADDAISMHLLKDWTDTFVYILEKLIFDMTNHYNDSQQLRTWKRQISYFLKLLGNCYSLRLINKEIFHHWLVEFINKMENFEFLPLSLHILMIFWNDICQIDTNAPVAATITSSQKEPFFLVTKITDMLLHKYYIVSSSKSMINDENYIINDIKKNNKIKLNILKILSSLILKIFQEQSLEVFIFPTSNWEIYKPLLFEIVSNADTNQNSDMKKKLELISYRNESLKNNSSIRNVIMSASNANDFQLTIVTCKQFPKLSCIQLNCIDTQFTKLLDDNPTEFDWPTYVDQNPLTMHKIIQLILWSIHPSRQFDHYESNQLVAKLLLLRINSTDEDLHEFQIEDAIWSLVFQLAKNFSAQKRVVSYMMPSLYRLLNILITYGIIKVPTYIRKLISSGLLYLQDSNDKFVHVQLLINLKISPLMKSQYNMVLRNVMEYDVKFYEIFNFDQLVEITEQIKMRILSNDITNLQLSKTPLSIKIMVAEWYLSHLCSGILSSVNRTVLLKIFKIFCIDLEVFHHFFKWIEFIVYHQLLSDIESLEALMDILLCYQKLFSQFINDHILFTKTFIFIYKKVLKEKDVPAYNVTSFMPFWKFFMKNFPFVLKVDNDLRIELQSVYNDEKLKTEKLKNDKSEVLKVYSMINNSNQAVGQTWNFPEVFQVNIRFLLHNSEIIDTNTSKQFQKARNNVMLLIATNLKEYNKFMSIFLKRKDFTNKNLIQLISLKLLTFEVTQNVLGLEYIIRLLPINLENNDGSYGLFLKYHKEQFIKSNFEKILLTCYELEKKYHGNECEINYYEILLKILITYGSSPKLLATSTKIIMLLLNDSVENSSNILEDILYYSTCPSETDLNDIPLGSGQPDNDTVVTNDDKSDDDDHTVDEIDHVEYYVMMDFANLWVFQAFTCFCIKKIMENNEPAMAMEDLKNFIFQIIEITNSNDLCSQIFDQLKDMQTIEMITQIVEKDFCTSCLQNNNQKIDDNYIVVVIEIITSLSMRFQRETSGMIVISMENYHLLIKIIRQLSELNEGNLSKREIQIDAVLKIFSFHQDSIFQRIIADLSADKPTSPFIDSICKLFDKISFNLRLKLFLYEILSSLKSFAIYSSTIDAPAFHTSGKVELPKKLLNLPPFQVSSFVKETKLHSGDYGEEEDADQEESFSLNLGIGIVEIAHENEQKWLIYDKKDHKYVCTFSMEPYHFISNYNTKYTDDMATGSNDTTAFNDSCVNLSLFDARFERKNPH	–
binds	Ssn8, P47821 1-323 (protein) MSGSFWTSTQRHHWQYTKASLAKERQKLWLLECQLFPQGLNIVMDSKQNGIEQSITKNIPITHRDLHYDKDYNLRIYCYFLIMKLGRRLNIRQYALATAHIYLSRFLIKASVREINLYMLVTTCVYLACKVEECPQYIRTLVSEARTLWPEFIPPDPTKVTEFEFYLLEELESYLIVHHPYQSLKQIVQVLKQPPFQITLSSDDLQNCWSLINDSYINDVHLLYPPHIIAVACLFITISIHGKPTKGSSLASAASEAIRDPKNSSSPVQIAFNRFMAESLVDLEEVMDTIQEQITLYDHWDKYHEQWIKFLLHTLYLRPASAI	–

Continued, molecule first:

Molecule	binding [2]	also measured
Med3 (from UniProt P40356 1-397)	–	binding [1]: binds
Med5 (from UniProt P53114 1-1132)	–	binding [1]: binds
Ssn2, P38931 1-1420 (protein) MSSDASTYRLEDVLSSFYRVEKIKKINYHQYISKAQNDQWSIQMEFMLRKQDPKTLVALLSRDLWCFSINDDPVPTPPAIEHKPVSPDKIGTFTADYSKPNLPPHYALFLKALRRKIYINLALGSHNKLIQFGNACISLSGVPNYLVQLEPHLFVNGDLTVSLCAKNMGLVPMKEENLEESFLSKHALYLAPSGIRMHLAPASKQGYLITPPKHTELLLTTLSVSHGINLQNKKNLKWVAVVPDLGHLNGHTPTIASYLTPLLEAKKLVWPLHLIFAQPVADIENSTSGDPSEFHCLQDALDAIDDFIQLKQTAAYRTPGSSGVLSSNIAGTNPLSSDGAYTEQFQHYKNNSISSQPASYHSVQETNKISPKDFSPNFTGIDKLMLSPSDQFAPAFLNTPNNNINENELFNDRKQTTVSNDLENSPLKTELEANGRSLEKVNNSVSKTGSVDTLHNKEGTLEQREQNENLPSDKSDSMVDKELFGEDEDEDLFGDSNKSNSTNESNKSISDEITEDMFEMSDEEENNNNKSINKNNKEMHTDLGKDIPFFPSSEKPNIRTMSGTTKRLNGKRKYLDIPIDEMTLPTSPLYMDPGAPLPVETPRDRRKSVFAPLNFNPIIENNVDNKYKSGGKFSFSPLQKEEALNFDISMADLSSSEEEEDEEENGSSDEDLKSLNVRDDMKPSDNISTNTNIHEPQYINYSSIPSLQDSIIKQENFNSVNDANITSNKEGFNSIWKIPQNDIPQTESPLKTVDSSIQPIESNIKMTLEDNNVTSNPSEFTPNMVNSEISNLPKDKSGIPEFTPADPNLSFESSSSLPFLLRHMPLASIPDIFITPTPVVTISEKEQDILDLIAEQVVTDYNILGNLGIPKIAYRGVKDCQEGLITTTMLQLFSTFDRLNGNDTISKFYNMKQPYVFVKKHHELIKVKHDSQPFIKFLNFRPPNGIKNFKSLLLSSSFKEDCLSFAPTLSQTYINQELGFCELLKLTNEDPPGLMYLKAFDKNKLLLLAAQIVSYCSNNKNSIKNVPPILIILPLDNATLTELVDKANIFQVIKNEVCAKMPNIELYLKVIPMDFIRNVLVTVDQYVNVAISIYNMLPPKSVKFTHIAHTLPEKVNFRTMQQQQMQQQQQQQQQQQNNSTGSSSIIYYDSYIHLAYSRSVDKEWVFAALSDSYGQGSMTKTWYVGNSRGKFDDACNQIWNIALNLASKKFGKICLILTRLNGILPDDELMNWRRLSGRNIHLAVVCVDDNSKISFIDEDKLYPSFKPIYKDTRFGGRMDMTRLYDYEIRDIDQDIHGIVFQHPFPLAHSQHRCAIRSGALIKFKKCDGDTVWDKFAVNLLNCPHSDSTQLLETILEEFRNLAALNVWYGLSDGEDGHIPWHILAVKKMMNTLVHTRVKIANTSAATVHTATSSSIILSDK	binds	–
Swp82, P43554 1-623 (protein) MLGEDEGNTVLEKGNNPSVKQGEVGAVFIVPKILIREHERVILKQILQILDQDELVQPPLDKFPYKKLELPKYIDELKTRDATNTSYKMIQLDAYGEKKVGSNGELFGGRHYLFNTFTFTAHMGVLLVLLQDVIKVLYQSNATHDEDEFIVQHDQILVMETSEEQTKFLAKNGVIPEESKGSFKYITARSAFVEFGASVIAGGQRIVDDYWESLAKKQNLSSHQRVFKLSTNLISKISLLRPSFQNNRISNANEISANTNNTCTISTSKFESQYPIVTEQPSAEIREAYIENFAKGEHISAIVPGQSISGTLELSAQFRVPRYHSKNSFQQALQMKAMDIPIGRHEELLAQYESQAPDGSASISLPNHIPSVNPSNKPIKRMLSSILDINVSSSKNKKSEENEMIKPMNKGQHKNNTSLNINGWKFESLPLKSAENSGKQQYYRGLPLYEKNTLLERLKQLTPNEIKELEHLHDAVFVNTGLQNVRKVRTKKWKKYWQYKAGIPIGLKRSQLDEFKNKYLKDVLAQTSVTTNFNEITNTDETITTKRVPNPNFLGNCNIKDFKPPYIYSHVNKVPQNVAGDKTAVKLDTEVKNTNANPVVATDPVAAKPDNLANFSNEVAMNN	binds	–
Ssn3, P39073 1-555 (protein) MYNGKDRAQNSYQPMYQRPMQVQGQQQAQSFVGKKNTIGSVHGKAPMLMANNDVFTIGPYRARKDRMRVSVLEKYEVIGYIAAGTYGKVYKAKRQINSGTNSANGSSLNGTNAKIPQFDSTQPKSSSSMDMQANTNALRRNLLKDEGVTPGRIRTTREDVSPHYNSQKQTLIKKPLTVFYAIKKFKTEKDGVEQLHYTGISQSACREMALCRELHNKHLTTLVEIFLERKCVHMVYEYAEHDLLQIIHFHSHPEKRMIPPRMVRSIMWQLLDGVSYLHQNWVLHRDLKPANIMVTIDGCVKIGDLGLARKFHNMLQTLYTGDKVVVTIWYRAPELLLGARHYTPAVDLWSVGCIFAELIGLQPIFKGEEAKLDSKKTVPFQVNQLQRILEVLGTPDQKIWPYLEKYPEYDQITKFPKYRDNLATWYHSAGGRDKHALSLLYHLLNYDPIKRIDAFNALEHKYFTESDIPVSENVFEGLTYKYPARRIHTNDNDIMNLGSRTKNNTQASGITAGAAANALGGLGVNRRILAAAAAAAAAVSGNNASDEPSRKKNRR	binds	–
Rrn3 (protein, UniProt P36070 1-627) MMAFENTSKRPPQDFVAPIDQKKRKVQFSDSTGLVTLQPEEIKDEVFSAAMYSRFVKSALDDLDKNDSTQIGIIANQVALPSKNPERINDKNLNILLDILSSNINRIESSRGTFLIQSIINFEKWWELPPHTLSKYIYFIKILCSSIPKWWQDVSMILVSCFILPIKQTVCHHDMLKYFLRMIPSSMGFIDTYLAKFFPNKNDTRRKLVNYTSNLLKLRGYCSELGFQIWSLLIEKIISIDVELQNELDELDDDVDDDDLEEVDLEDDDDLDDDSGDDDDENCGNSNEELRSGAADGSQSDSEDMDIIEGMDGTEEYNVELTQGIKELSTKLDSILTLVSTHVEEQVTPESLESGEGVGVFNTLTTLFKTHVLPTYYTRSIQYIMFHVSQQQLELMDSFLVTLIDISFAVNEAAEKKIKSLQYLGSYIARAKKLSRTQIIFVASYLTSWLNRYVIEREEEVDQRGGMERFKHFYAAFQALCYIFCFRHNIFRDTDGNWECELDKFFQRMVISKFNPLKFCNENVMLMFARIAQQESVAYCFSIIENNNNERLRGIIGKADSDKKENSAQANTTSSSWSLATRQQFIDLQSYFPYDPLFLKNYKILMKEYYIEWSEASGEYESDGSDD	–	binding [3]: no binding

Results are given in words; binding and its absence hold for the method and conditions named. Binding seen in cells or lysates may run through a third protein. These calls come from enrichment with a bait or labelling near it, and not all partners need be listed. For some assays here: A no says only that the protein was not detected with the bait. For some assays here: Where a sequence is shown, tags or fusion partners need not be part of it.
